These results are taken from PubChem BioAssay AID1347423 (Functional Genomics Laboratory (NCATS/FGL), 2020).

About 210 (0.4%) of roughly 52,000 sequences were called active.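 Rule for the calls: active = gene whose silencing raises cell survival under the drug, median off-target-corrected z-score across its silencing RNAs 2 or more; inactive = the rest.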 The list shows a part of the results.

This assay is described as follows: Resistance to Poly (ADP-Ribose) Polymerase inhibitor: Gene Identification via Genome-wide siRNA Screen. To be noted: mouse BRCA2 R2336H ES cells, olaparib, CellTiter-Glo viability; stronger effect = higher value. The essentials: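 Mouse BRCA2 R2336H ES cells were reverse-transfected with siRNA (20 nM final), treated at 48 h with 500 nM olaparib, and read by CellTiter-Glo after 72 h. Scores: MAD-based z per siRNA, median per gene, seed off-target correction.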
For orientation: In ATP-based viability assays light output follows the ATP content of the culture.
On to GGAAGUAUCAAUACUUUCCTT against Pkdrej, for which the z-score was inactive: 0.493. With “CGAACUACCAGACAUGACUTT against D130064H19Rik” the figure was inactive: 0.0699; with GCGGCUUGCCAAGACAGUATT against Grpr, inactive: -1.22. With CCUUGAAAUACUGAGUGACTT against AU067695 the figure was inactive: 1.17. The result for “GGAGUUCUUUCUGAGGUGUTT against 2410003P15Rik” reads inactive: -0.204. As to “GGGCUGGCACUGGAAAUAGTT against 1110061L23Rik”, the z-score was inactive: -0.314. The result for CCCAGACUUAUUUCAUCACTT against Rgs12 reads inactive: 0.725. With GCACCAGGCCAAAUGAAGUTT against Srrp the figure was inactive: -0.514; with GGAGAUUGUGCUGAAGUUUTT against Tmc3, inactive: -0.663. With GGAGGAUUGUUUGAACCAATT against Myrip the figure was inactive: -1.42; with GGAAAAUGGAAGAAAAGCATT against Ddhd1, inactive: -1.04; with GGGCUUUAGCCUGAGCGAUTT against Gpc1, inactive: -1.16. Take GCUGUUGUUCAAUGCCCUGTT against Olfr392: the z-score is inactive: 0.712. As for GGUGGCUGAAGAUGUGACUTT against Ttyh1, the z-score was inactive: -0.579. The result for GGUCUUCAUGGUCAAAGUGTT against Fzd10 reads inactive: 1.41; that for GCCUGUUAUAUGUGGCCUUTT against Olfr1352, inactive: -2.61. The result for GACCAUUAACUUGAUUUUGTT against Lsm8 reads inactive: 0.533. With GCGACCAGCAGGUCAAAAUTT against Hoxd12, the z-score was inactive: 1.2. With GGAACUUAUACAAAAAAGCTT against Spata6 the figure was inactive: -1.2. The result for CCCUGAAUUGCAACCUAUUTT against Olfr867 reads inactive: 0.228.

Regarding CUCUUCAACGAGUGUAAAATT against Klra7, the z-score is inactive: 1.26. Turning to CCUGAAAACCAUGCAAUACTT against Tas2r125, the z-score is inactive: -1.52.

Consider GGAGUCUUGGCCCUUUAAUTT against Zcchc12, for which the z-score was inactive: -0.774. With “CCGUUUUUUUCUUACAAUGTT against 5430431G03Rik”, the z-score was inactive: -0.39. The result for GCCGUGCAAAGUUUAUUCATT against Txndc3 reads inactive: 0.231; that for GAUGCCUUUUUUGUAGGCATT against Olfr539, inactive: -1.14.

With GGAUCCUGACUCUCCUCUUTT against Fhl3, the z-score was inactive: 0.394. With GGAUGUGAAUCUGCGCAAUTT against Dpep3, the z-score was inactive: 2.23. For CCUGCUCAUAAUUCUGUGUTT against Olfr855, the z-score was inactive: -0.699. Take GGACAUAAGUGACAGACAUTT against Chrnb2: the z-score is active: -1.32. The result for GGUUUGUGCCUUUAUAGUGTT against Ppm1h reads inactive: 0.446; that for CCUUAUAAAAGCUACGAGGTT against Hsd3b7, inactive: 1.34.

On to GGAGAAUGCCACAACUACATT against 425O18-1, for which the z-score was inactive: -0.248. With GCCCAAACGAAAAAUGGCCTT against Abl1 the figure was inactive: 0.454; with CGAUACUGUGCAAAGAAUCTT against BC027231, inactive: -1.68; with CCCAUAUCCUGUAAAAUACTT against Usp7, inactive: 3.05. With “GGAUGAACAGCUGUAGAAATT against 3230401I01Rik” the figure was inactive: -0.369; with GGACACCAAAGUGAAUACATT against Mucdhl, inactive: -0.239; with GGAUGAUGCCCGAAAGAACTT against Zfp536, inactive: 0.289. With GGUCAUGCGGAGCAAAGAATT against Sirt5 the figure was inactive: -0.406. In the case of “GGAAAGAAGCAACCACUUCTT against 4833439L19Rik”, the z-score was inactive: -0.302.

As to GGAUGGACUAAAUGAUGAUTT against Ythdf2, the z-score is inactive: 0.183. The result for GGACUGACAGAGUCACUUGTT against Olfr733 reads inactive: -1.98. With GCUUGUGCGUCCUUUCUGUTT against Nmu the figure was inactive: -0.923; with GCUGGAAGAUAGUGCUUUUTT against Itpr1, inactive: 1.15. With GGAACUGAAAAAGUUGUUGTT against Niban the figure was inactive: -0.191; with GGCUGAAUGUGAGAAUAGCTT against Map3k14, inactive: -0.827; with GGCAUUGAUAAAGAUGGCATT against Grip1, inactive: -0.4.

Take “CCUUAAUAAACUAUGCUGCTT against 2810439M11Rik”: the z-score was inactive: -1.83. With CGGCUGAACAUGGAACAACTT against Gpc3 the figure was inactive: 0.264; with GGCGAAUUAAUUAACCGCCTT against Abcb10, inactive: 0.431; with GCAAAUUCUCGGUGUCAAATT against Ezh2, inactive: 1.43. As to GGGUCAACUACUCACACUGTT against Crhr2, the z-score is inactive: 0.0689.

As to CGAGUCAUUACCAAUUACUTT against F13a, the z-score was inactive: -0.503.

GCCAUUUCGUUCUCUGGGUTT against Olfr161: the z-score is inactive: 1.3. With GGGCUAUGUGCUCUUUUGUTT against Edg6 the figure was inactive: 0.487; with GGUCUCACCAUCUUAACCCTT against Catsper1, inactive: -1.49. The result for “GGACCAUUCUGGCUACUCATT against 6430502M16Rik” reads inactive: -3.27. Turning to GGAAAAAUAUGAGUCUUCCTT against Serpinb2, the z-score was inactive: -0.309.

For the sequence CUAGCAGGGUCAGAAUGUUTT against Olfr331, the z-score is inactive: -2.41. The result for GGGACAAUACUUUCUUCUATT against Meig1 reads inactive: 0.409; that for GGAUAUCAAGAAGAGCCUGTT against Ptprr, inactive: 2.24; that for “GGAGAUCUGUGAUGAGGUGTT against 0610006K04Rik”, inactive: -2.24. The result for GGUAUACUUCAAAAGAAGGTT against H2-Q1 reads inactive: -0.164; that for AUGCUUUGAUCAGUAUGAATT against V1rh17, inactive: -0.198.

For CCCAAGCCUUUAAACGGAGTT against Cbln3, the z-score is inactive: -0.0423. With “CGGGCUAUGGAGUUGAAGATT against 2610024G14Rik” the figure was inactive: -0.546; with GCAGUUACGUAGAAAGUCUTT against Prdx6-rs1, inactive: -1.37. With GGAAACGUAUGAACAAUAATT against Sema4f the figure was inactive: 1.89. For the sequence CCAAAGAUCUCAAAUAAAGTT against Tlk2, the z-score was inactive: 0.463.

As for “GGUCCUUCCUCAGAUCCCUTT against 5730457F11Rik”, the z-score was active: 1.66. Take GCUGGUAACAGAAUUUCUUTT against LOC213043: the z-score was inactive: -0.274. With GGACUAUGCAGUUUUAUUGTT against Chrac1 the figure was inactive: 0.995. With GGCCAAGAUCCAAGACAAGTT against Uba52 the figure was inactive: -3.69; with GUGUGUGUGCAGUCCUCAUTT against Olfr1269, inactive: -1.5; with GGAUCUUCUUUGUUGGUGCTT against V1rc20, inactive: -0.487. Turning to GCCCAUGAUAAAAGAAGAATT against Pex1, the z-score is inactive: -0.45. The result for GGAUUGAGUGAACCCUCCCTT against Rpl36 reads inactive: -2.95. On to “GGGAAGGAAGAAUUUAUUUTT against 6430571L13Rik”, for which the z-score was inactive: 1.19. On to GGUCACAUUCGCUCUCUUGTT against Olfr1155, for which the z-score was inactive: 0.311.

Turning to “GCAUCACUGAUCUGUGAAUTT against 2610510J17Rik”, the z-score was inactive: -1.63.

Regarding GGUGCACUGCCAAUUAUCUTT against Btbd11, the z-score was inactive: -0.216. The result for GGAAAACUUUCAAAGAGAUTT against Mc4r reads inactive: 2.07; that for GGCGGAUGGACUAAUUUACTT against Zap70, inactive: -0.297; that for GGAGUGCUAUGACAAUUUUTT against Slc12a1, inactive: 2.2. With GAACAAGGCGGACUUCCAATT against Dad1 the figure was inactive: -2.73; with GCAGCACGAACUGAUGACGTT against Plcd3, inactive: -0.572. With GGCCGUGUCAUUCAUUGGCTT against Adssl1 the figure was inactive: -1.34.

With GGAGCUCUUUUUGAACACUTT against Sgcg, the z-score was inactive: 0.972. For GGGUUGUCGUUCAGUUUACTT against Art2a, the z-score was inactive: -0.383. With GGACUUGAAAGACGAGAUATT against Cyp19a1 the figure was inactive: 0.0662; with GGAGGUGGUGAAUAAGGAUTT against Mcm7, inactive: -2.2; with GCAGUUGGGUUGGUAACUATT against Ash1l, inactive: -1.06.

Consider “GGUGGAGUCAGUAUAAAUCTT against 2210023C10Rik”, for which the z-score was inactive: -0.321.

Consider GGUUGUUAAAGGAAAACUATT against Olfr1023, for which the z-score was inactive: -0.715.

Turning to GGUGAACUUCUUUGGUGCATT against Hsd11b2, the z-score is inactive: 2.51. With GGAGAAUCAAUGAGUAUCCTT against Apoe the figure was inactive: -0.872. As to GGAGGAAGAAGACUCAGAATT against Prkag2, the z-score was inactive: 1.96.

As to GGAGGAAAAAAAACAGUGATT against Trim7, the z-score was inactive: -1.36. The result for GGAUUGUCAAAAUGUGGACTT against Smyd2 reads inactive: 0.805.

Turning to GGACUACUCGGCCAUCAUUTT against Map3k6, the z-score was inactive: -1.95. The result for GCAGAGCUAGCUGAAUUGCTT against AK122209 reads inactive: 0.9. With GGGCCAUCUCUCAAUUAUGTT against Gga2 the figure was inactive: 0.0928; with GGUAUAGCAAUUUCUACAATT against Chrna2, inactive: 0.476; with GGCAUUCAGGAAGUUACUGTT against Krtcap1, inactive: 0.991.
